Source: the supplement of paper PMC8090911
Structures can show the parent of a compound that is named as a salt. The list shows a part of the results. Most values come without repeats; read them as rough.

The compounds below were run on p95-ErbB2-MCF7 (assay: perinuclear lysosome accumulation (PNLA, size of LAMP2 puncta), robust Z-score vs plate median; higher = more perinuclear lysosome accumulation (reversal of invasive lysosome distribution)). Details: 5 µM; 24 h.
COc1cc(N)c(Cl)cc1C(=O)NC1CCN(Cc2ccccc2)CC1 [Clebopride maleate] gave a perinuclear lysosome accumulation of 0.622. Nc1nc(N)nc(-c2cc(Cl)ccc2Cl)n1 [Irsogladine Maleate] gave a perinuclear lysosome accumulation of 2.43. For CCN1CCCC1CNC(=O)c1cc(S(=O)(=O)CC)c(N)cc1OC (stereo unspecified) [Amisulpride], the perinuclear lysosome accumulation was -1.69. With CC[C@]12CCCN3CCc4c(n(c5ccccc45)[C@@](O)(C(=O)OC)C1)[C@@H]32 [Vincamine] the perinuclear lysosome accumulation was 0.759. Nc1ccc(S(N)(=O)=O)cc1 [Sulfanilamide] gave a perinuclear lysosome accumulation of -0.51. With CC(CCc1ccc(O)cc1)NCCc1ccc(O)c(O)c1 (stereo unspecified) [Dobutamine hydrochloride] the perinuclear lysosome accumulation was -1.37. CC1=C(C(=O)O)N2C(=O)[C@@H](NC(=O)[C@H](N)c3ccc(O)cc3)[C@H]2SC1 [Cefadroxil] gave a perinuclear lysosome accumulation of 0.504. C=CCN1CCCC1CNC(=O)c1cc2nn[nH]c2cc1OC (stereo unspecified) [Alizapride HCl] showed a perinuclear lysosome accumulation of -3.43. With CC(C)(Oc1ccc(C2CC2(Cl)Cl)cc1)C(=O)O (stereo unspecified) [Ciprofibrate] the perinuclear lysosome accumulation was 1.07. With C=C(NC(=O)C(=C)NC(=O)c1csc(C2=N[C@@H]3c4csc(n4)[C@H]4NC(=O)c5csc(n5)[C@H]([C@](C)(O)[C@@H](C)O)NC(=O)[C@H]5CSC(=N5)/C(=C/C)NC(=O)[C@H]([C@@H](C)O)NC(=O)c5csc(n5)[C@]3(CC2)NC(=O)[C@H](C)NC(=O)C(=C)NC(=O)[C@H](C)NC(=O)[C@H]([C@@H](C)CC)N[C@@H]2C=Cc3c([C@H](C)O)cc(nc3[C@H]2O)C(=O)O[C@@H]4C)n1)C(N)=O [Thiostrepton] the perinuclear lysosome accumulation was 3.54. CCC(C)(CN(C)C)OC(=O)c1ccccc1 (stereo unspecified) [Amyleine hydrochloride] showed a perinuclear lysosome accumulation of 0.576. Compound CC(=C(CCO)SSCC1CCCO1)N(C=O)Cc1cnc(C)nc1N (stereo in doubt) [Fursultiamine Hydrochloride] has a perinuclear lysosome accumulation of -0.179. Work on NC(=O)c1cccnc1 [Nicotinamide] yielded a perinuclear lysosome accumulation of 1.85. In the case of Cn1c(=O)c2c(ncn2CC(O)CO)n(C)c1=O (stereo unspecified) [Diprophylline], the perinuclear lysosome accumulation is reported as -1.24. Compound CNC1(C)C2CCC(C2)C1(C)C (stereo unspecified) [Mecamylamine hydrochloride] has a perinuclear lysosome accumulation of -3.18. Clc1ccccc1C(c1ccccc1)(c1ccccc1)n1ccnc1 [Clotrimazole] gave a perinuclear lysosome accumulation of -0.343. With Clc1ccc(COC(Cn2ccnc2)c2ccc(Cl)cc2Cl)cc1 (stereo unspecified) [Econazole nitrate] the perinuclear lysosome accumulation was 0.141. C=CC[N@@+]12CC[C@@]34c5ccccc5N5/C=C6/[C@H]7C[C@H]8[C@@]9(CC[N@@+]8(CC=C)C/C7=C/CO)c7ccccc7N(/C=C(/[C@@H](C[C@@H]31)/C(=C\CO)C2)[C@H]54)[C@@H]69 [Alcuronium chloride] gave a perinuclear lysosome accumulation of 0.499. In the case of CCCC(C(=O)OCCN(CC)CC)(c1ccccc1)c1ccccc1 [Proadifen hydrochloride], the perinuclear lysosome accumulation is reported as 1.17. Work on CCN(CC)C(=O)N1CCN(C)CC1 [Diethylcarbamazine citrate] yielded a perinuclear lysosome accumulation of 0.282. CCN(CCCc1ccccc1)CCCc1ccccc1 [Alverine citrate salt] showed a perinuclear lysosome accumulation of -1.09. CCSc1ccc2c(c1)N(CCCN1CCN(C)CC1)c1ccccc1S2 [Thiethylperazine malate] was tested, and the perinuclear lysosome accumulation was 0.76. CN(C)CCC(c1ccccc1)c1ccccn1 (stereo unspecified) [Pheniramine maleate] was tested, and the perinuclear lysosome accumulation was 0.303. CC(=O)OC(C)C[N+](C)(C)C (stereo unspecified) [Methacholine chloride] was tested, and the perinuclear lysosome accumulation was 1.37. CCCCOc1ccc(CC(=O)NO)cc1 [Bufexamac] gave a perinuclear lysosome accumulation of -1.65. With C=CCc1ccccc1OCC(O)CNC(C)C (stereo unspecified) [Alprenolol hydrochloride] the perinuclear lysosome accumulation was 1.43. Compound NC[C@H]1CC[C@H](C(=O)O)CC1 [Tranexamic acid] has a perinuclear lysosome accumulation of -3.85. For O=C(O)c1cc(=O)c2c(OCC(O)COc3cccc4oc(C(=O)O)cc(=O)c34)cccc2o1 [Cromolyn disodium salt], the perinuclear lysosome accumulation was -1.08. For O=C(Nc1ccccc1)OCC(CN1CCCCC1)OC(=O)Nc1ccccc1 (stereo unspecified) [Diperodon hydrochloride], the perinuclear lysosome accumulation was -0.352. Work on CN1[C@@H]2CC[C@H]1C[C@@H](OC(c1ccccc1)c1ccccc1)C2 [Benztropine mesylate] yielded a perinuclear lysosome accumulation of 0.848. With CC(=O)Nc1ccc(OCC(O)CNC(C)C)cc1 (stereo unspecified) [Practolol] the perinuclear lysosome accumulation was -0.146. In the case of CC(=O)OCC(=O)[C@@]12OC3(CCCC3)O[C@@H]1C[C@H]1[C@@H]3CCC4=CC(=O)C=C[C@]4(C)[C@@]3(F)[C@@H](O)C[C@@]12C [Amcinonide], the perinuclear lysosome accumulation is reported as -0.136. Compound N=C(N=C(N)N)N1CCOCC1 [Moroxidine hydrochloride] has a perinuclear lysosome accumulation of -1.42. CNCC[C@@H](Oc1ccccc1C)c1ccccc1 [Tomoxetine hydrochloride] was tested, and the perinuclear lysosome accumulation was 0.558. With O=C(CCCCC(=O)Nc1c(I)cc(I)c(C(=O)O)c1I)Nc1c(I)cc(I)c(C(=O)O)c1I [Iodipamide] the perinuclear lysosome accumulation was -0.793. O=C(O)Cc1cc(I)c(Oc2ccc(O)c(I)c2)c(I)c1 [Tiratricol, 3,3',5-triiodothyroacetic acid] showed a perinuclear lysosome accumulation of -0.0627. COCCCOc1ccnc(C[S+]([O-])c2nc3ccccc3[nH]2)c1C (stereo unspecified) [Rabeprazole] gave a perinuclear lysosome accumulation of 0.22. With CCCc1nc2c(C)cc(-c3nc4ccccc4n3C)cc2n1Cc1ccc(-c2ccccc2C(=O)O)cc1 [Telmisartan] the perinuclear lysosome accumulation was 0.907. Compound CCCCOC(=O)c1ccc(O)cc1 [Butylparaben] has a perinuclear lysosome accumulation of 0.168. N=C(N)N1CCc2ccccc2C1 [Debrisoquin sulfate] was tested, and the perinuclear lysosome accumulation was -0.654. CC(=O)/N=c1/sc(S(N)(=O)=O)nn1C [Methazolamide] gave a perinuclear lysosome accumulation of -0.853. Work on CCCCC1C(=O)N(c2ccccc2)N(c2ccccc2)C1=O [Phenylbutazone] yielded a perinuclear lysosome accumulation of 0.233. With CC(=O)NC[C@H]1CN(c2ccc(N3CCOCC3)c(F)c2)C(=O)O1 [Linezolid] the perinuclear lysosome accumulation was -0.647. O=C1C(O)=C(O)C(=O)C(O)=C1O [Tetrahydroxy-1,4-quinone monohydrate] gave a perinuclear lysosome accumulation of 1.52. For Cc1nccn1CC1CCc2c(c3ccccc3n2C)C1=O (stereo unspecified) [Ondansetron Hydrochloride], the perinuclear lysosome accumulation was 0.766. COc1ccc2c(c1)c(CC(=O)OCC(=O)O)c(C)n2C(=O)c1ccc(Cl)cc1 [Acemetacin] gave a perinuclear lysosome accumulation of -0.192. Work on CCOCCn1c(N2CCCN(C)CC2)nc2ccccc21 [Emedastine] yielded a perinuclear lysosome accumulation of -0.481. With CC1=C(C(=O)O)N2C(=O)[C@@H](NC(=O)[C@H](N)c3ccccc3)[C@H]2SC1 [Cephalexin monohydrate] the perinuclear lysosome accumulation was -0.43. CC[C@H](C)C(=O)O[C@H]1C[C@H](O)C=C2C=C[C@H](C)[C@H](CC[C@@H](O)C[C@@H](O)CC(=O)O)[C@H]21 [Pravastatin] was tested, and the perinuclear lysosome accumulation was -0.0594. CC(C)(C)NCC(O)COc1cccc2c1CC(O)C(O)C2 (stereo unspecified) [Nadolol] gave a perinuclear lysosome accumulation of -0.999. Cc1cccc(C)c1NC(=O)CN1CCN(CCCC(c2ccc(F)cc2)c2ccc(F)cc2)CC1 [Lidoflazine] showed a perinuclear lysosome accumulation of -0.73. CC(=O)O[C@]1(C(C)=O)CC[C@H]2[C@@H]3C=C(C)C4=CC(=O)CC[C@]4(C)[C@H]3CC[C@@]21C [Megestrol acetate] was tested, and the perinuclear lysosome accumulation was 0.182. Nc1nnc(-c2cccc(Cl)c2Cl)c(N)n1 [Lamotrigine] gave a perinuclear lysosome accumulation of 0.835. Work on CC[C@@]1(O)C(=O)OCc2c1cc1n(c2=O)Cc2cc3c(CN(C)C)c(O)ccc3nc2-1 [Topotecan] yielded a perinuclear lysosome accumulation of -1.19. In the case of Nc1nc(=O)[nH]cc1F [Flucytosine], the perinuclear lysosome accumulation is reported as 0.955. Compound CN(Cc1ccc(C(C)(C)C)cc1)Cc1cccc2ccccc12 [Butenafine] has a perinuclear lysosome accumulation of 0.766. Work on S=c1[nH]cnc2nc[nH]c12 [Mercaptopurine] yielded a perinuclear lysosome accumulation of -0.251. CCCCCCCCNC(C)C(O)c1ccc(SC(C)C)cc1 (stereo unspecified) [Suloctidil] was tested, and the perinuclear lysosome accumulation was -1.65. COc1ccc2c3c1O[C@H]1C[C@@H](O)C=C[C@@]31CCN(C)C2 [Galanthamine hydrobromide] was tested, and the perinuclear lysosome accumulation was 0.0124. O=c1[nH]c(=O)n([C@H]2C[C@H](O)[C@@H](CO)O2)cc1C(F)(F)F [Trifluridine] gave a perinuclear lysosome accumulation of 1.2. For Cc1nnc(SCC2=C(C(=O)O)N3C(=O)[C@@H](NC(=O)Cn4cnnn4)[C@H]3SC2)s1 [Cefazolin sodium salt], the perinuclear lysosome accumulation was -0.794. In the case of CC(C)NC(=N)NC(=N)Nc1ccc(Cl)cc1 [Proguanil hydrochloride], the perinuclear lysosome accumulation is reported as 0.677. CC(C)Cn1cnc2c(N)nc3ccccc3c21 [Imiquimod] showed a perinuclear lysosome accumulation of -0.401. NC(=O)N1c2ccccc2CC(=O)c2ccccc21 [Oxcarbazepine] gave a perinuclear lysosome accumulation of 0.0882. With Cc1cccc(Nc2ccncc2S(=O)(=O)NC(=O)NC(C)C)c1 [Torsemide] the perinuclear lysosome accumulation was 0.0291. In the case of CC1(C)O[C@@H]2[C@@H](CO[C@@]3(COS(N)(=O)=O)OC(C)(C)O[C@@H]23)O1 [Topiramate], the perinuclear lysosome accumulation is reported as 0.161. Work on COc1cc(NS(=O)(=O)c2ccc(N)cc2)nc(OC)n1 [Sulfadimethoxine] yielded a perinuclear lysosome accumulation of -0.373. C=N[C@@H](C(=O)N[C@@H]1C(=O)N2[C@@H]1SC(C)(C)[C@@H]2C(=O)O)c1ccccc1 [Metampicillin sodium salt] was tested, and the perinuclear lysosome accumulation was -0.547. In the case of CC[N+](CC)(CC(=O)Nc1c(C)cccc1C)Cc1ccccc1 [Denatonium benzoate], the perinuclear lysosome accumulation is reported as -2.14. In the case of CN(C)CCN(Cc1ccc(Cl)cc1)c1ccccn1 [Chloropyramine hydrochloride], the perinuclear lysosome accumulation is reported as -0.205. With NS(=O)(=O)Cc1noc2ccccc12 [Zonisamide] the perinuclear lysosome accumulation was -0.336. Work on COc1ccc2c(c1)C(=O)N(CCc1ccc(S(=O)(=O)NC(=O)NC3CCCCC3)cc1)C(=O)C2(C)C [Gliquidone] yielded a perinuclear lysosome accumulation of -1.93. Compound COc1ccc([C@@H]2Sc3ccccc3N(CCN(C)C)C(=O)[C@@H]2OC(C)=O)cc1 [Diltiazem hydrochloride] has a perinuclear lysosome accumulation of -0.162. For Cc1cn([C@H]2C[C@H](N=[N+]=[N-])[C@@H](CO)O2)c(=O)[nH]c1=O [Zidovudine, AZT], the perinuclear lysosome accumulation was 0.236. Work on CC(C[N+](C)(C)C)OC(N)=O (stereo unspecified) [Bethanechol chloride] yielded a perinuclear lysosome accumulation of -1.32. Work on COc1cccc(N(C)C(=S)Oc2ccc3c(c2)CCCC3)n1 [Liranaftate] yielded a perinuclear lysosome accumulation of -0.918.
